# Assay results from patent US20110027352A1, “COMPOUNDS FOR USE IN THE TREATMENT OF NEUROPATHIC PAIN” (priority 2008, published 2011).
# Entries after “also recorded” stand apart in the source; their conditions may differ.
# How the values were obtained:
# [1] = test system: mechanical allodynia of the neuropathic (“Cuff”) mice; test: Sciatic nerve cuff murine model of neuropathic pain, von Frey filament test in neuropathic (Cuff) mice; type: in vivo, C57BL/6J mice; settings: for Mechanical allodynia of the right (neuropathic) foot after chronic treatment: injection twice a day
# [2] = test system: nociceptive sensitivity of the mice of the control (“Sham”) group; test: von Frey filament test in control (Sham) mice operated without cuff; type: in vivo, C57BL/6J mice; settings: chronic treatment (14-21 days); doses and modes as in examples 2, 7, 9 to 14 and 20 (formoterol 0.5 mg/kg, terbutalin 5 mg/kg)
structure (smiles),measurement,setting,value
COc1ccc(CC(C)NCC(O)c2ccc(O)c(NC=O)c2)cc1 (centres unmarked) [formoterol],Mechanical allodynia of the right (neuropathic) foot after chronic treatment,[1]; 0.005 mg/kg,completely suppress the mechanical allodynia
same,Mechanical allodynia of the right (neuropathic) foot after chronic treatment,[1]; 0.05 mg/kg,completely suppress the mechanical allodynia
same,"Allodynia in neuropathic (Cuff) animals after chronic treatment, recapitulation (FIG. 25)","[1]; chronic treatment (14-21 days), doses and modes as in examples 7, 9 to 14 and 20 (formoterol 0.5 mg/kg, terbutalin 5 mg/kg)","relieve this allodynia; also recorded: causes the neuropathic pain, for example the neuropathic allodynia, to completely disappear"
same,"Effect on neuropathic allodynia acutely after the first injection, summary statement","[1]; first injection of the agonist, doses as in examples 7, 9, 11 and 15",not observed acutely after the first injection
same,"Sensitivity of control (Sham) animals under chronic treatment, recapitulation (FIG. 26)",[2],do not affect the control animals; also recorded: does not aspecifically affect the sensitivity of the control animals
